Measurements: the supplement of paper PMC10727501
Some of the results follow. Single values are uncertain here, since repeats match poorly.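 Free-swimming zebrafish larvae were assessed for O-bend response probability to dark flashes (naive: first five; training: remaining flashes across four 60-flash blocks; test: later 60-flash block) and for OMR turning toward alternating leftward/rightward LED motion. Six treated larvae were compared against sixty 0.1% DMSO controls; hits required |SSMD|≥2.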

Experiments:
Conditions in all cases: 10 µM; pre-incubation: 30-90 min
[1] = system: Danio rerio larvae (5 dpf, TLF); assay: OMR-Perf (SSMD vs DMSO vehicle); higher = higher than vehicle (e.g. higher dark-flash O-bend response probability, or better optomotor performance)
[2] = system: Danio rerio larvae (5 dpf, TLF); assay: Prob-Test (SSMD vs DMSO vehicle); higher = higher than vehicle (e.g. higher dark-flash O-bend response probability, or better optomotor performance)
[3] = system: Danio rerio larvae (5 dpf, TLF); assay: Prob-Naive (SSMD vs DMSO vehicle); higher = higher than vehicle (e.g. higher dark-flash O-bend response probability, or better optomotor performance)
[4] = system: Danio rerio larvae (5 dpf, TLF); assay: Prob-Train (SSMD vs DMSO vehicle); higher = higher than vehicle (e.g. higher dark-flash O-bend response probability, or better optomotor performance)

Compound	OMR-Perf [1]	Prob-Test [2]	Prob-Naive [3]	Prob-Train [4]
O=C1[C@H](CC[C@H](O)c2ccc(F)cc2)[C@H](c2ccc(O)cc2)N1c1ccc(F)cc1 [Ezetimibe]	-0.0288	0.0512	0.0155	-0.0785
COc1cccc(Nc2c(C(N)=O)cnc3c(C)cc(S(=O)(=O)c4cccc(C(=O)N(C)C)c4)cc23)c1	-0.414	-0.577	-0.093	-1.53
OCc1c[nH]c2ccccc12 [Indole-3-carbinol]	-0.161	-0.0963	-0.219	-0.467
Cc1cn(C2C=CC(CO)O2)c(=O)[nH]c1=O (centres undefined) [Stavudine (d4T)]	0.352	0.394	-0.0197	0.842
O=C(c1ccc(/C=C/c2n[nH]c3ccccc23)cc1)N1CCNCC1	-0.0528	0.384	0.564	0.344
O=C1c2c(O)cccc2[C@H]([C@@H]2O[C@H](CO)[C@H](O)[C@H](O)[C@H]2O)c2cc(CO)cc(O)c21 [Aloin]	0.555	0.232	-0.247	0.597
NCCc1c[nH]cn1.O=P(=O)OO.O=P(=O)OO.[HH].[HH] [Histamine Phosphate]	-0.316	0.447	0.0912	0.378
O=C(O)C1=CC(O)C(O)[C@H](O)C1 (some centres undefined) [Shikimic Acid]	0.0675	-0.167	-0.283	0.107
Clc1ccc2c(c1)C(N1CCNCC1)=Nc1ccccc1O2 [Amoxapine]	-0.986	0.24	0.433	0.508
Cl.NC1=NCC2c3ccccc3Cc3ccccc3N12 (centres undefined) [Epinastine HCl]	-0.585	-0.409	-0.148	-0.591
O=C(/C=C/c1ccc(O)c(O)c1)c1ccc(O)cc1O [Butein]	0.116	-0.107	-0.577	-0.559
COc1ccc(C[C@H](NC(=O)[C@H](C)NC(=O)CN2CCOCC2)C(=O)N[C@@H](Cc2ccccc2)C(=O)[C@]2(C)CO2)cc1	-0.62	0.0377	0.493	0.18
CC(C(=O)O)c1ccc2c(c1)[nH]c1ccc(Cl)cc12 (centres undefined) [Carprofen]	0.585	0.204	-0.095	-0.36
OCc1ccccc1O[C@@H]1O[C@H](CO)[C@@H](O)[C@H](O)[C@H]1O [Salicin]	0.328	0.2	-0.0187	0.205
CC(C)(C)C(=O)C(Oc1ccc(Cl)cc1)n1ccnc1 (centres undefined) [Climbazole]	-0.26	0.052	0.105	0.169
Nc1nc2c(ncn2[C@@H]2O[C@@H](CO)[C@@H](O)[C@H]2O)c(=O)[nH]1 [Guanosine]	-0.549	-0.205	0.47	-0.0843
Cl.c1ccc(CN(CC2=NCCN2)c2ccccc2)cc1 [Antazoline HCl]	-0.496	-0.908	-0.199	-0.0155
CC[C@H](C)C(=O)O[C@@H]1C[C@H](O)C=C2C=C[C@H](C)[C@@H](CC[C@@H](O)C[C@@H](O)CC(=O)[O-])[C@H]21.[Na+] [Pravastatin sodium]	-0.122	-0.187	0.584	0.249
Nc1ccn([C@@H]2O[C@H](CO)[C@@H](O)[C@@H]2O)c(=O)n1 [Cytidine]	0.173	0.346	0.375	0.295
O=C(O)/C=C/c1ccc(O)c(O)c1 [Caffeic Acid]	-0.491	0.00575	0.375	-0.0802
COc1cc2nc(N3CCN(C(=O)C4COc5ccccc5O4)CC3)nc(N)c2cc1OC.CS(=O)(=O)O (centres undefined) [Doxazosin Mesylate]	-0.598	-0.888	-0.0319	-0.478
Cn1cc(C=C2C(=O)Nc3cccnc32)c2ccccc21	0.205	-0.987	-3.97	-2.36
CC(C)N(CCCNC(=O)Nc1ccc(C(C)(C)C)cc1)C[C@H]1O[C@@H](n2cc(Br)c3c(N)ncnc32)[C@H](O)[C@@H]1O	0.608	-0.171	0.245	-0.09
CN1CCN2c3ncccc3Cc3ccccc3C2C1 (centres undefined) [Mirtazapine]	-0.644	-0.282	0.375	-0.336
C=CC(=O)Nc1cccc(Nc2nc(Nc3ccc(N4CCN(C(C)=O)CC4)cc3OC)ncc2C(F)(F)F)c1	0.473	-0.292	-0.0443	-0.399
CC1CCCC(C)N1NC(=O)c1ccc(Cl)c(S(N)(=O)=O)c1 (centres undefined) [Clopamide]	-0.927	0.222	0.0239	0.331

Exported as comma-separated lines: part of the list above.
Compound,OMR-Perf [1],Prob-Test [2],Prob-Naive [3],Prob-Train [4]
O=C(c1ccc(/C=C/c2n[nH]c3ccccc23)cc1)N1CCNCC1,-0.0528,0.384,0.564,0.344
Nc1ccn([C@@H]2O[C@H](CO)[C@@H](O)[C@@H]2O)c(=O)n1 [Cytidine],0.173,0.346,0.375,0.295
